Measurements taken from patent publication US20080003193A1, “ODOR ELIMINATION AND AIR SANITIZING COMPOSITION” (S.C. JOHNSON & SON, INC., priority 2006, published 2008).
Some entries share one result that the patent states for a list of compounds.

Experiment: Vapor pressure at room temperature
Type: physicochemical

Compound | vapor pressure
C(COCCOCC1CO1)OCCOCC1CO1 (centres unmarked) [TEG diglycidyl ether, triethylene glycol (TEG) diglycidyl ether] | less than 0.001 mmHg
OCCOCCOCCOCC1CO1 (centres unmarked) [TEG monoglycidyl ether] | less than 0.001 mmHg
